The record followed here is PMC12136456.

Sequences of proteins named here, by UniProt entry; tags and fusion partners are left off.
UniProt Q9UKA9: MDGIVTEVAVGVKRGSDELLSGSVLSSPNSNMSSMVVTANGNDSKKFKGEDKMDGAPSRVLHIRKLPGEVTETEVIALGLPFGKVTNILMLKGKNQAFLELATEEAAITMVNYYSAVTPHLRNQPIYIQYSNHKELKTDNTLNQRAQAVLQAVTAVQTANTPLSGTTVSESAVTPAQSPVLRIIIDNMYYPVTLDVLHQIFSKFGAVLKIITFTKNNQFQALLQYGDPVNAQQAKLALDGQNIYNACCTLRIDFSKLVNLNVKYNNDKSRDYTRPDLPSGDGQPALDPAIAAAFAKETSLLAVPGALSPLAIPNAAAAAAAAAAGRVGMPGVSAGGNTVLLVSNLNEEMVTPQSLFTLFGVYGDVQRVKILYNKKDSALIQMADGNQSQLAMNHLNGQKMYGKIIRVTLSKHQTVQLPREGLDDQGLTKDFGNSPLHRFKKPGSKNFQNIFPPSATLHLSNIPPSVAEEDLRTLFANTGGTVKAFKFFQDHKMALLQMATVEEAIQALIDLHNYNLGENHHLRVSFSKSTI
UniProt P26599: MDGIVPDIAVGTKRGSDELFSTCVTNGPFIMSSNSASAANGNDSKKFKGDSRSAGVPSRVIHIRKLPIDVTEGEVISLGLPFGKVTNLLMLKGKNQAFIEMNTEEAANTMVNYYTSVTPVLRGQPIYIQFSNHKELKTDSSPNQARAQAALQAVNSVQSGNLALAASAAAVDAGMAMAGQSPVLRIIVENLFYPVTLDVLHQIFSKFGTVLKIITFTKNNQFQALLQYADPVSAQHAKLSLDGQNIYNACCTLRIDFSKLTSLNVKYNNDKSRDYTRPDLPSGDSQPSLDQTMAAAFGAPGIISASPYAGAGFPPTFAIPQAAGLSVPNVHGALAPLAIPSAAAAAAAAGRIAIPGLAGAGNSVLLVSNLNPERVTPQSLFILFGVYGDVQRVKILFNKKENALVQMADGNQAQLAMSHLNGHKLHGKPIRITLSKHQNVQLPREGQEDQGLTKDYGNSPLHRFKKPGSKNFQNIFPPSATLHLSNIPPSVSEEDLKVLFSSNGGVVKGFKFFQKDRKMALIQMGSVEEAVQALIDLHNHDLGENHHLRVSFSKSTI

In assay [1] the target is Polypyrimidine Tract Binding Protein 2, His-tagged (UniProt Q9UKA9). Nature of the assay: affinity purification with mass spectrometry; 48 ug His-tagged PTBP in a 200 ul splicing reaction (2.2 mM MgCl2, 0.4 mM ATP, 20 mM creatine phosphate) with WERI retinoblastoma nuclear extract, 30 C 90 min; HisPur Ni-NTA magnetic resin overnight at 4 C; washes with 150 mM NaCl, 30 mM imidazole; eluted with 300 mM imidazole; proteins of the Buffer DG and WERI only controls removed from the lists; the extract includes RNA transcripts, so a protein may be bound directly or through RNA; only the target purified.

The target in assay [2] is Polypyrimidine Tract Binding Protein 1, His-tagged (UniProt P26599). The assay is described as above.

These are yes or no findings as the source states them, for the method shown. In cells and extracts the contact can be indirect. Here binding means that the protein was enriched with, or labelled near, the bait; the list need not be complete.

B1: TBPL1, a TATA box-binding protein like −1 (protein, UniProt P62380 1-186)
chain: MDADSDVALDILITNVVCVFRTRCHLNLRKIALEGANVIYKRDVGKVLMKLRKPRITATIWSSGKIICTGATSEEEAKFGARRLARSLQKLGFQVIFTDFKVVNVLAVCNMPFEIRLPEFTKNNRPHASYEPELHPAVCYRIKSLRATLQIFSTGSITVTGPNVKAVATAVEQIYPFVFESRKEIL
With B1, in assay [1], the binding entry is reported as “binds”.

B2: serine threonine protein kinase like protein PXK (protein, UniProt Q7Z7A4 1-578)
chain: MAFMEKPPAGKVLLDDTVPLTAAIEASQSLQSHTEYIIRVQRGISVENSWQIVRRYSDFDLLNNSLQIAGLSLPLPPKKLIGNMDREFIAERQKGLQNYLNVITTNHILSNCELVKKFLDPNNYSANYTEIALQQVSMFFRSEPKWEVVEPLKDIGWRIRKKYFLMKIKNQPKERLVLSWADLGPDKYLSDKDFQCLIKLLPSCLHPYIYRVTFATANESSALLIRMFNEKGTLKDLIYKAKPKDPFLKKYCNPKKIQGLELQQIKTYGRQILEVLKFLHDKGFPYGHLHASNVMLDGDTCRLLDLENSLLGLPSFYRSYFSQFRKINTLESVDVHCFGHLLYEMTYGRPPDSVPVDSFPPAPSMAVVAVLESTLSCEACKNGMPTISRLLQMPLFSDVLLTTSEKPQFKIPTKLKEALRIAKECIEKRLIEEQKQIHQHRRLTRAQSHHGSEEERKKRKILARKKSKRSALENSEEHSAKYSNSNNSAGSGASSPLTSPSSPTPPSTSGISALPPPPPPPPPPAAPLPPASTEAPAQLSSQAVNGMSRGALLSSIQNFQKGTLRKAKTCDHSAPKIG
Take B2: the binding result in assay [1] is reported as “binds”.

B3: U4/U6. U5 tri snRNP associated protein USP39 (protein, UniProt Q53GS9 1-565)
chain: MSGRSKRESRGSTRGKRESESRGSSGRVKRERDREREPEAASSRGSPVRVKREFEPASAREAPASVVPFVRVKREREVDEDSEPEREVRAKNGRVDSEDRRSRHCPYLDTINRSVLDFDFEKLCSISLSHINAYACLVCGKYFQGRGLKSHAYIHSVQFSHHVFLNLHTLKFYCLPDNYEIIDSSLEDITYVLKPTFTKQQIANLDKQAKLSRAYDGTTYLPGIVGLNNIKANDYANAVLQALSNVPPLRNYFLEEDNYKNIKRPPGDIMFLLVQRFGELMRKLWNPRNFKAHVSPHEMLQAVVLCSKKTFQITKQGDGVDFLSWFLNALHSALGGTKKKKKTIVTDVFQGSMRIFTKKLPHPDLPAEEKEQLLHNDEYQETMVESTFMYLTLDLPTAPLYKDEKEQLIIPQVPLFNILAKFNGITEKEYKTYKENFLKRFQLTKLPPYLIFCIKRFTKNNFFVEKNPTIVNFPITNVDLREYLSEEVQAVHKNTTYDLIANIVHDGKPSEGSYRIHVLHHGTGKWYELQDLQVTDILPQMITLSEAYIQIWKRRDNDETNQQGA
Consider B3, for which the binding entry in assay [1] is reported as “binds”.

B4: WAC (protein, UniProt Q9BTA9 1-647)
chain: MVMYARKQQRLSDGCHDRRGDSQPYQALKYSSKSHPSSGDHRHEKMRDAGDPSPPNKMLRRSDSPENKYSDSTGHSKAKNVHTHRVRERDGGTSYSPQENSHNHSALHSSNSHSSNPSNNPSKTSDAPYDSADDWSEHISSSGKKYYYNCRTEVSQWEKPKEWLEREQRQKEANKMAVNSFPKDRDYRREVMQATATSGFASGMEDKHSSDASSLLPQNILSQTSRHNDRDYRLPRAETHSSSTPVQHPIKPVVHPTATPSTVPSSPFTLQSDHQPKKSFDANGASTLSKLPTPTSSVPAQKTERKESTSGDKPVSHSCTTPSTSSASGLNPTSAPPTSASAVPVSPVPQSPIPPLLQDPNLLRQLLPALQATLQLNNSNVDISKINEVLTAAVTQASLQSIIHKFLTAGPSAFNITSLISQAAQLSTQAQPSNQSPMSLTSDASSPRSYVSPRISTPQTNTVPIKPLISTPPVSSQPKVSTPVVKQGPVSQSATQQPVTADKQQGHEPVSPRSLQRSSSQRSPSPGPNHTSNSSNASNATVVPQNSSARSTCSLTPALAAHFSENLIKHVQGWPADHAEKQASRLREEAHNMGTIHMSEICTELKNLRSLVRVCEIQATLREQRILFLRQQIKELEKLKNQNSFMV
In the case of B4, the binding entry in assay [2] is “binds”.

B5: U4/U6. U5 tri snRNP associated protein SNRNP27 (protein, UniProt Q8WVK2 1-155)
chain: MGRSRSRSPRRERRRSRSTSRERERRRRERSRSRERDRRRSRSRSPHRRRSRSPRRHRSTSPSPSRLKERRDEEKKETKETKSKERQITEEDLEGKTEEEIEMMKLMGFASFDSTKGKKVDGSVNAYAINVSQKRKYRQYMNRKGGFNRPLDFIA
For B5, in assay [1], the binding result is “binds”.

B6: serine arginine rich splicing factor SRSF8 (protein, UniProt Q9BRL6 1-282)
chain: MSCGRPPPDVDGMITLKVDNLTYRTSPDSLRRVFEKYGRVGDVYIPREPHTKAPRGFAFVRFHDRRDAQDAEAAMDGAELDGRELRVQVARYGRRDLPRSRQGEPRGRSRGGGYGRRSRSYGRRSRSPRRRHRSRSRGPSCSRSRSRSRYRGSRYSRSPYSRSPYSRSRYSRSPYSRSRYRESRYGGSHYSSSGYSNSRYSRYHSSRSHSKSGSSTSSRSASTSKSSSARRSKSSSVSRSRSRSRSSSMTRSPPRVSKRKSKSRSRSKRPPKSPEEEGQMSS
With B6, the binding result in assay [1] is listed as “binds”.

B7: GDI2 (protein, UniProt P50395 1-445)
chain: MNEEYDVIVLGTGLTECILSGIMSVNGKKVLHMDRNPYYGGESASITPLEDLYKRFKIPGSPPESMGRGRDWNVDLIPKFLMANGQLVKMLLYTEVTRYLDFKVTEGSFVYKGGKIYKVPSTEAEALASSLMGLFEKRRFRKFLVYVANFDEKDPRTFEGIDPKKTTMRDVYKKFDLGQDVIDFTGHALALYRTDDYLDQPCYETINRIKLYSESLARYGKSPYLYPLYGLGELPQGFARLSAIYGGTYMLNKPIEEIIVQNGKVIGVKSEGEIARCKQLICDPSYVKDRVEKVGQVIRVICILSHPIKNTNDANSCQIIIPQNQVNRKSDIYVCMISFAHNVAAQGKYIAIVSTTVETKEPEKEIRPALELLEPIEQKFVSISDLLVPKDLGTESQIFISRTYDATTHFETTCDDIKNIYKRMTGSEFDFEEMKRKKNDIYGED
For B7, in assay [2], the binding entry is “binds”.

B8: peptidyl-prolyl cis-transisomerase (PPIL3) (protein, UniProt Q9H2H8 1-161)
chain: MSVTLHTDVGDIKIEVFCERTPKTCENFLALCASNYYNGCIFHRNIKGFMVQTGDPTGTGRGGNSIWGKKFEDEYSEYLKHNVRGVVSMANNGPNTNGSQFFITYGKQPHLDMKYTVFGKVIDGLETLDELEKLPVNEKTYRPLNDVHIKDITIHANPFAQ
With B8, the binding entry in assay [1] is recorded as “binds”.

B9: TBL1X (protein, UniProt O60907 1-577)
chain: MTELAGASSSCCHRPAGRGAMQSVLHHFQRLRGREGGSHFINTSSPRGEAKMSITSDEVNFLVYRYLQESGFSHSAFTFGIESHISQSNINGTLVPPAALISILQKGLQYVEAEISINEDGTVFDGRPIESLSLIDAVMPDVVQTRQQAFREKLAQQQASAAAAAAAATAAATAATTTSAGVSHQNPSKNREATVNGEENRAHSVNNHAKPMEIDGEVEIPSSKATVLRGHESEVFICAWNPVSDLLASGSGDSTARIWNLNENSNGGSTQLVLRHCIREGGHDVPSNKDVTSLDWNTNGTLLATGSYDGFARIWTEDGNLASTLGQHKGPIFALKWNRKGNYILSAGVDKTTIIWDAHTGEAKQQFPFHSAPALDVDWQNNTTFASCSTDMCIHVCRLGCDRPVKTFQGHTNEVNAIKWDPSGMLLASCSDDMTLKIWSMKQEVCIHDLQAHNKEIYTIKWSPTGPATSNPNSNIMLASASFDSTVRLWDIERGVCTHTLTKHQEPVYSVAFSPDGKYLASGSFDKCVHIWNTQSGNLVHSYRGTGGIFEVCWNARGDKVGASASDGSVCVLDLRK
Take B9: the binding entry in assay [2] is on record as “binds”.

B10: serine arginine rich splicing factor SRSF11 (protein, UniProt Q05519 1-484)
chain: MSNTTVVPSTAGPGPSGGPGGGGGGGGGGGGTEVIQVTNVSPSASSEQMRTLFGFLGKIDELRLFPPDDSPLPVSSRVCFVKFHDPDSAVVAQHLTNTVFVDRALIVVPYAEGVIPDEAKALSLLAPANAVAGLLPGGGLLPTPNPLTQIGAVPLAALGAPTLDPALAALGLPGANLNSQSLAADQLLKLMSTVDPKLNHVAAGLVSPSLKSDTSSKEIEEAMKRVREAQSLISAAIEPDKKEEKRRHSRSRSRSRRRRTPSSSRHRRSRSRSRRRSHSKSRSRRRSKSPRRRRSHSRERGRRSRSTSKTRDKKKEDKEKKRSKTPPKSYSTARRSRSASRERRRRRSRSGTRSPKKPRSPKRKLSRSPSPRRHKKEKKKDKDKERSRDERERSTSKKKKSKDKEKDRERKSESDKDVKQVTRDYDEEEQGYDSEKEKKEEKKPIETGSPKTKECSVEKGTGDSLRESKVNGDDHHEEDMDMSD
On to B10, for which the binding result in assay [1] is on record as “binds”.

B11: Matrin 3 (protein, UniProt P43243 1-847)
chain: MSKSFQQSSLSRDSQGHGRDLSAAGIGLLAAATQSLSMPASLGRMNQGTARLASLMNLGMSSSLNQQGAHSALSSASTSSHNLQSIFNIGSRGPLPLSSQHRGDADQASNILASFGLSARDLDELSRYPEDKITPENLPQILLQLKRRRTEEGPTLSYGRDGRSATREPPYRVPRDDWEEKRHFRRDSFDDRGPSLNPVLDYDHGSRSQESGYYDRMDYEDDRLRDGERCRDDSFFGETSHNYHKFDSEYERMGRGPGPLQERSLFEKKRGAPPSSNIEDFHGLLPKGYPHLCSICDLPVHSNKEWSQHINGASHSRRCQLLLEIYPEWNPDNDTGHTMGDPFMLQQSTNPAPGILGPPPPSFHLGGPAVGPRGNLGAGNGNLQGPRHMQKGRVETSRVVHIMDFQRGKNLRYQLLQLVEPFGVISNHLILNKINEAFIEMATTEDAQAAVDYYTTTPALVFGKPVRVHLSQKYKRIKKPEGKPDQKFDQKQELGRVIHLSNLPHSGYSDSAVLKLAEPYGKIKNYILMRMKSQAFIEMETREDAMAMVDHCLKKALWFQGRCVKVDLSEKYKKLVLRIPNRGIDLLKKDKSRKRSYSPDGKESPSDKKSKTDGSQKTESSTEGKEQEEKSGEDGEKDTKDDQTEQEPNMLLESEDELLVDEEEAAALLESGSSVGDETDLANLGDVASDGKKEPSDKAVKKDGSASAAAKKKLKKVDKIEELDQENEAALENGIKNEENTEPGAESSENADDPNKDTSENADGQSDENKDDYTIPDEYRIGPYQPNVPVGIDYVIPKTGFYCKLCSLFYTNEEVAKNTHCSSLPHYQKLKKFLNKLAEERRQKKET
Regarding B11, the binding result in assay [1] is listed as “binds”.
